Measurements reported in the supplement of paper PMC5949888.
Most values lie at the floor of the assay. Slopes are relative: functional sequences can read slightly below zero.

system: Saccharomyces cerevisiae PS128 hsf1 delta, HSF1(1-493) fusion; experiment: growth estimate (transactivation domain function in HSF1 fusion, heat-shock survival) (a.u. (slope of normalised read count over time)); higher = stronger growth at 37°C, i.e. more transactivation activity; settings: library: random library

Row | Substance | growth estimate
1 | QVKGEQALAE | < -0.25
2 | AGIQPQVDPGSGDPYNAELT | < -0.25
3 | LRRDSVILIRGQGLTTATIG | < -0.25
4 | PTDPRFADGTFTTIVPRGKP | -0.243
5 | VDVIQPSDTVTALSGIPIRV | < -0.25
6 | VIVEVSPQSGYHVVMALTGY | < -0.25
7 | LCLVADRSWRMESGTPRTRY | < -0.25
8 | IRGL | < -0.25
9 | QPVGTTGLASEDFLFLITRR | < -0.25
10 | LHLALVIRRCISCKAADPPG | < -0.25
11 | WSLVS | < -0.25
12 | QRVTVSVW | < -0.25
13 | VPHSVSSLQPGVL | < -0.25
14 | RIRRCYLGTLIISLVR | < -0.25
15 | RMHERTREASRRCCLRHQWP | < -0.25
16 | WKKR | < -0.25
17 | TDRLY | < -0.25
18 | IFAVSSGQTLLMLIYVC | < -0.25
19 | QPTKINICVFMRPR | < -0.25
20 | RSGTNCERHMED | < -0.25
21 | AVRNCGSPAT | < -0.25
22 | MQRFGAYIGRQPARAALSSG | < -0.25
23 | YKHMIEYQERRRTITSVGQA | < -0.25
24 | RSGIVLAIANRVWWGEKFIV | < -0.25
25 | YLEQRMQSEAHM | < -0.25

Fetched one by one from above, 2 records:
Row | Substance | growth estimate
20 | RSGTNCERHMED | < -0.25
21 | AVRNCGSPAT | < -0.25

Remaining list, next part

Row | Substance | growth estimate
26 | SRLLLSAGNLGNRSSIQPLE | < -0.25
27 | DMYGDCGFSAA | < -0.25
28 | NWQGPAATISIEPRRELLGI | < -0.25
29 | LLRELAETTRYCVGVRIRYY | < -0.25
30 | GSWL | < -0.25
31 | RDISTTTGSNVHRGVRWVRK | < -0.25
32 | QASG | < -0.25
33 | ARIRD | < -0.25
34 | SWMG | < -0.25
35 | LCCTERFVVNRQSP | < -0.25
36 | QMNGW | < -0.25
37 | DHGTDRWVPQPCQLKAFQVD | < -0.25
38 | TVRSICNSARSTCRWKKE | < -0.25
39 | NTQIA | < -0.25
40 | IRDPKPALFIRGVSVLSATR | < -0.25
41 | LDM | < -0.25
42 | LGLSITIRIIRSGP | -0.223
43 | TDKECVPPKLVSCGPTWYLW | < -0.25
44 | LRVCSKLSSSGRIRAYSRSC | < -0.25
45 | PCRDNPL | < -0.25
46 | YSTRSRLGPIRPIVRG | < -0.25
47 | GSDPQG | < -0.25
48 | RERLPNR | < -0.25
49 | LEYPLGRVYSHLDICAYWR | < -0.25
50 | ILGLSQLL | < -0.25

Row | Substance | growth estimate
51 | NFKTWT | < -0.25
52 | KSAGITW | < -0.25
53 | HIGRYKS | -0.243
54 | RTLQAVRRGGSTGCSGQRVA | < -0.25
55 | CVRNC | < -0.25
56 | ISRGSILPYWSGRAANGGTG | < -0.25
57 | SQLFIRCSERLL | < -0.25
58 | LWRFGRGGSGKHGGHASSLS | < -0.25
59 | WVEIATWLGLLSQVWREA | < -0.25
60 | YGSIKAF | < -0.25
61 | GHVRLASCLPRQ | < -0.25
62 | SRCYLYGRRRSQRRPAITRA | < -0.25
63 | AVRQHQAGRTLLYKVLMKPA | < -0.25
64 | WCQMPTNRNHS | < -0.25
65 | LEVGVGVMFGLTSCAEEVAG | < -0.25
66 | HCKED | < -0.25
67 | PLHDPFMRGISLDGVGEMYA | -0.224
68 | GGNIRDDSKGSCRKLSALEI | < -0.25
69 | LWDLRGLRRMKSCLRLTRLY | < -0.25
70 | GLDCFERISLGRCRVVFLLS | < -0.25
71 | RRVFAKQWGR | < -0.25
72 | GETMK | < -0.25
73 | CMRLGRVVSPS | < -0.25
74 | RVS | < -0.25
75 | NCPLSCVN | < -0.25

Entries 10 to 14, reprinted for reference:
Row | Substance | growth estimate
10 | LHLALVIRRCISCKAADPPG | < -0.25
11 | WSLVS | < -0.25
12 | QRVTVSVW | < -0.25
13 | VPHSVSSLQPGVL | < -0.25
14 | RIRRCYLGTLIISLVR | < -0.25

Additional results:

Row | Substance | growth estimate
76 | CIGNLGLLHECERPLLGFSY | < -0.25
77 | IRASMLLFGEAVRYCTPRIG | < -0.25
78 | RRVVGPDVTLCSGQQACGVH | < -0.25
79 | CTRAWSKMCLIMYISMITDS | < -0.25
80 | IGGVGP | < -0.25
81 | TRGF | < -0.25
82 | GHNLVT | < -0.25
83 | VELSRGHQLKKRGVYLHASA | < -0.25
84 | GQSSLSWDAMPLSGSCQQHT | -0.206
85 | SIVCKILRTIIRVLS | -0.17
86 | CDSPRIDLCTPLATSV | < -0.25
87 | TVGGSAQWCEHCSRGCGNIA | < -0.25
88 | VTVERDTGNGSKPVRIPYRC | < -0.25
89 | GIGLSEIGKVICTSLHHFAV | < -0.25
90 | DRITTSGEIPESPSVRGRKA | < -0.25
91 | APHH | < -0.25
92 | HNEPIRCLNVYSIVRAQ | < -0.25
93 | GIPGG | < -0.25
94 | VVACCRPFRKIR | < -0.25
95 | LAIQ | < -0.25
96 | KVIDAPCYAQECGTAGHHYN | < -0.25
97 | PRVSMFNQVYITRRNYHSAG | < -0.25
98 | IYHREERTFESQARRSKFNS | -0.169
99 | SVGGRKKSQKDTTESRMEQQ | < -0.25
100 | RVW | < -0.25

Row | Substance | growth estimate
101 | CHESPSVNSLRYISRVPGSP | < -0.25
102 | GLWNRRYPGLRNRIRQLEH | < -0.25
103 | ITGVKVGSLPET | < -0.25
104 | PRDAKHGRWLDAAWTVSWRL | < -0.25
105 | YLDQAIVVPCLMDTR | < -0.25
106 | WPKLVGCCLFISRDLHFRFL | < -0.25
107 | YEGADGISCTNDPWNICGWW | 2.55
108 | LTRQSAESNDVLNF | -0.243
109 | VFKQAQGQSLDTLPRRRYKS | < -0.25
110 | LYHVLIAD | < -0.25
111 | VRGVGFRCWYTRQGVSKGFA | < -0.25
112 | GHSGYRPMHRSSHNISCVRL | < -0.25
113 | PGVMLRESELSIVGHA | < -0.25
114 | YPCVWQSVARESICHLLEGC | < -0.25
115 | HRFWVASAHVSVRRS | < -0.25
116 | VLGLPA | < -0.25
117 | HLVRRFLFS | < -0.25
118 | TCSQIVVPCGVGLIRGRRL | < -0.25
119 | FHLARVGVCPSWGRESSL | < -0.25
120 | VRGLCCGTPRSLSVNPGSGV | < -0.25
121 | RPAGRHTMCGISKGRRTGSR | < -0.25
122 | GDILAES | < -0.25
123 | FHSSQVGKRRFALDRLREGT | < -0.25
124 | RMSQKLHRDT | < -0.25
125 | VKVRDFILNTITT | < -0.25

Row | Substance | growth estimate
126 | SVLNIRQRRNKSRTTPLWK | < -0.25
127 | RYELKVFDDHIVTPYSELMD | < -0.25
128 | RTRVPARCTTRKGDTISVAG | < -0.25
129 | PCSP | < -0.25
130 | GGSGKTKKFLGSPN | < -0.25
131 | NLNFLNPPQRGVEEARPVTW | -0.175
132 | SSRDARDESTTNAVQSAEKS | < -0.25
133 | EHVVVVLLRVILENETNGAT | < -0.25
134 | AVCQCRRSCAGVECRKGGLV | < -0.25
135 | RLLDALAS | < -0.25
136 | VRMGSLIRSTMRLRAAT | < -0.25
137 | KFRQYTGSAGQRVSKLQCAG | < -0.25
138 | GNLRRA | < -0.25
139 | RLHTYVANI | < -0.25
140 | ACDRLFR | < -0.25
141 | ANELVSSGCRFM | < -0.25
142 | TGVIERTAETLGATSRISYS | < -0.25
143 | PLVGRLDLCQLSLGYDSGSA | < -0.25
144 | GSFFQGELAYKRLCNKTSPH | < -0.25
145 | RKSSGLGLPAGIPWMPWALW | < -0.25

Single entries from above.
growth estimate, TGVIERTAETLGATSRISYS is entered as < -0.25
growth estimate, SSRDARDESTTNAVQSAEKS is entered as < -0.25
growth estimate, KFRQYTGSAGQRVSKLQCAG is entered as < -0.25
